Laboratory results: patent US9322042B2, “Thermostable cellulases, and mutants thereof, capable of hydrolyzing cellulose in ionic liquid” (The Regents of the University of California, priority 2009, dated 2016)

B1: Pho EG: cellulase of Pyrococcus horikoshii strain OT3 (Accession No. NP_143072); SEQ ID NO: 21 (protein, listed as Pyrococcus horikoshii)
chain: MEGNTILKIVLICTILAGLFGQVVPVYAENTTYQTPTGIYYEVRGDTIYMINVTSGEETPIHLFGVNWFGFETPNHVVHGLWKRNWEDMLLQIKSLGFNAIRLPFCTESVKPGTQPIGIDYSKNPDLRGLDSLQIMEKIIKKAGDLGIFVLLDYHRIGCTHIEPLWYTEDFSEEDFINTWIEVAKRFGKYWNVIGADLKNEPHSVTSPPAAYTDGTGATWGMGNPATDWNLAAERIGKAILKVAPHWLIFVEGTQFTNPKTDSSYKWGYNAWWGGNLMAVKDYPVNLPRNKLVYSPHVYGPDVYNQPYFGPAKGFPDNLPDIWYHHFGYVKLELGYSVVIGEFGGKYGHGGDPRDVIWQNKLVDWMIENKFCDFFYWSWNPDSGDTGGILQDDWTTIWEDKYNNLKRLMDSCSKSSSSTQSVIRSTTPTKSNTSKKICGPAILIILAVFSLLLRRAPR
B2: Tma Cel5A: wild-type cellulase of Thermatoga maritima strain MSB8 (Accession No. NP_229549); SEQ ID NO: 20 (protein, listed as Thermotoga maritima)
chain: MGVDPFERNKILGRGINIGNALEAPNEGDWGVVIKDEFFDIIKEAGFSHVRIPIRWSTHAYAFPPYKIMDRFFKRVDEVINGALKRGLAVVINIHHYEELMNDPEEHKERFLALWKQIADRYKDYPETLFFEILNEPHGNLTPEKWNELLEEALKVIRSIDKKHTIIIGTAEWGGISALEKLSVPKWEKNSIVTIHYYNPFEFTHQGAEWVEGSEKWLGRKWGSPDDQKHLIEEFNFIEEWSKKNKRPIYIGEFGAYRKADLESRIKWTSFVVREMEKRRWSWAYWEFCSGFGVYDTLRKTWNKDLLEALIGGDSIE

Experiment: Hydrolysis of insoluble substrates, statements over all substrates
Type: biochemical

Molecule	major hydrolysis product
B1	Cellobiose
B2	a mixture of sugars
